Results are given in words; binding and its absence hold for the method and conditions named. In cells and extracts the contact can be indirect. Binding calls can cover weak binding; strength is not graded here. For some assays here: Sequences can lack the tags named with a protein.
Tests used:
[1] = molecular target: T1, myc-tagged SYNJ2BP S21E (rat) (UniProt Q9WVJ4); test: proximity ligation; Duolink PLA (anti-SYNJ2BP and anti-SYNJ2) on primary mouse hippocampal neurons overexpressing mitoRaspberry and SYNJ2BP WT, S21A or S21E; puncta per soma normalised to soma size
T1 sequence: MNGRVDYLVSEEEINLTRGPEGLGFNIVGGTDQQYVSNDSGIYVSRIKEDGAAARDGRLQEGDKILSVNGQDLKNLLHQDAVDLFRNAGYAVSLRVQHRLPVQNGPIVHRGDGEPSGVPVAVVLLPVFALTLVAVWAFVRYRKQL

Sequences of proteins named here, by UniProt entry; tags and fusion partners are left off.
UniProt Q9D6K5: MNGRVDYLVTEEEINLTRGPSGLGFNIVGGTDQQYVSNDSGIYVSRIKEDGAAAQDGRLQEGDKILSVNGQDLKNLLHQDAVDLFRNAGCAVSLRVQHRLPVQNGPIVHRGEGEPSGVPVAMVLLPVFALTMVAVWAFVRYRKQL

[2] = molecular target: Synaptojanin 2 binding protein (SYNJ2BP), endogenous (mouse (endogenous in primary hippocampal neurons)) (UniProt Q9D6K5); test: proximity ligation; Duolink PLA on fixed, permeabilised primary mouse hippocampal neurons with mouse anti-SYNJ2BP and rabbit anti-SYNJ2 against the endogenous proteins; puncta per soma normalised to soma size; in Hibernate E imaging medium or full B27 culture medium; treatments: control, AICAR (1 mM, 2 h), insulin starvation (2 h), insulin (500 nM, 1 h) with or without GSK1904529A (1 µM, 2 h)

Synaptojanin 2 (SYNJ2), endogenous (from UniProt Q9D2G5-6)
binding [1]: binds | binding [2]: binds

— PMC10963278
